Several values for one entry are separate records, joined by “and”; a condition that tells them apart may be missing. Equal entries are not always repeated. The list shows a part of the results. The main result of the screen is listed elsewhere. These columns were measured beside it and carry no call. The list favours compounds with an active or inconclusive main result. Potencies come from curve fits of mixed quality, noted in brackets.
Assay: qHTS Assay to Find Inhibitors of Chronic Active B-Cell Receptor Signaling
Conditions: ABC-DLBCL IkBa-CBG/CBR reporter, luminescence ratio (green luciferase fused to IkBa over red control in TMD8 lymphoma cells), 4 h
In short: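 Cell line TMD8 (human ABC DLBCL), stably expressing tet-inducible CBG68-IkBa fusion and CBR; IMDM/0.5% FBS; cpd up to 46 uM; dox induction, 4 h, 37C/5% CO2; dual luminescence; green/red ratio; MG132 control.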

[1] = measured here: CBR red luminescence, cell number
[2] = measured here: IkBa-CBG green luminescence

Structure (SMILES): Cc1ccc(Cn2nnc3c(=O)[nH]c(C4CCN(S(=O)(=O)/C=C/c5ccccc5)CC4)nc32)cc1
- AC50 [1]: 7.08 µM [falling, partial curve, poor fit]

Structure (SMILES): O=C(Nc1cccc(Cl)c1)Nc1cccc(C(=O)O)c1
- AC50 [1]: 5.01 µM [falling, full curve]

Structure (SMILES): CC(=O)NCCc1nc2cc(NC(=O)c3ccccc3C)ccc2n1C
- AC50 [1]: 8.91 µM [falling, partial curve]

Structure (SMILES): CC(=O)Nc1ccc(C(=O)CSc2nc3ccc(C)cc3[nH]2)cc1
- AC50 [1]: 29.1 µM [rising, single point]

Structure (SMILES): O=C(CSC1=Nc2ccccc2C2=NC(CC(=O)NCc3ccco3)C(=O)N12)NCc1ccco1 (stereo unspecified)
- AC50 [1]: 29.1 µM [rising, single point]

Structure (SMILES): COc1cc(NC(=O)CN(C)Cc2ccc(OC(F)F)cc2)c(C)cc1[N+](=O)[O-]
- AC50 [1]: 0.00731 µM [rising, full curve, poor fit]

Structure (SMILES): Cc1sc2nc(SCC(=O)N(C)c3ccccc3)n(C)c(=O)c2c1C
- AC50 [1]: 3.55 µM [falling, partial curve, poor fit]

Structure (SMILES): COc1ccc(/C=C(\NC(=O)c2cccs2)C(=O)Nc2ccccc2C)cc1OC
- AC50 [1]: 29.1 µM [rising, single point]

Structure (SMILES): Cc1nc(NC(=O)c2ccc(Br)o2)sc1C
- AC50 [1]: 1.03 µM [falling, full curve, poor fit]

Structure (SMILES): CC1=C(C(=O)Nc2ccc(CC(=O)NCc3ccc(OC(C)C)cc3)cc2)SCCO1
- AC50 [1]: 8.91 µM [rising, partial curve]
- AC50 [2]: 1.58 µM [falling, full curve]

Structure (SMILES): COc1ccc2cc3c(N)nn(C(=O)Cc4c[nH]c5ccccc45)c3nc2c1
- AC50 [1]: 7.08 µM [falling, full curve]
- AC50 [2]: 12.6 µM [rising, single point]

Structure (SMILES): CCCc1nnc(N2C(=O)c3cccc4cccc(c34)C2=O)s1
- AC50 [1]: 20.6 µM [rising, single point]

Structure (SMILES): CSc1nsc(NC(=O)Cc2ccccc2)n1
- AC50 [1]: 8.2 µM [falling, partial curve]

Structure (SMILES): Cc1cccnc1NC(=O)/C=C/c1ccc2c(c1)OCO2
- AC50 [1]: 1.84 µM [falling, full curve]

Structure (SMILES): Cc1onc(-c2ccccc2)c1C(=O)N/N=C/c1cc2c(cc1Br)OCO2
- AC50 [1]: 29.1 µM [falling, single point]

Structure (SMILES): O=C(COC(=O)c1cc(Br)ccc1O)Nc1ccc2c(c1)OCO2
- AC50 [1]: 5.8 µM [falling, partial curve]

Structure (SMILES): Cc1ccc(Cl)cc1N1CCN(C(=O)CSc2nnc3n2C(C)(C)Cc2ccccc2-3)CC1
- AC50 [1]: 18.4 µM [falling, single point]

Structure (SMILES): O=C(COC(=O)c1nc(Cl)ccc1Cl)c1ccc[nH]1
- AC50 [1]: 29.1 µM [rising, partial curve, poor fit]

Structure (SMILES): C[C@]12CCC(=O)C=C1CC[C@@H]1[C@@H]2[C@@H](O)C[C@@]2(C)[C@H]1CC[C@]2(O)C(=O)COC(=O)CCC(=O)O
- AC50 [1]: 326 nM [rising, full curve, poor fit] and 231 nM [rising, full curve, poor fit]

Structure (SMILES): O=C(COC(=O)c1cccc([N+](=O)[O-])c1)Nc1ccc(Cl)cn1
- AC50 [1]: 16.4 µM [falling, partial curve, poor fit]

Structure (SMILES): COc1ccc(Br)cc1/C=N/NC(=O)CN1CCN(Cc2ccccc2)CC1
- AC50 [1]: 25.1 µM [rising, single point]

Structure (SMILES): CCn1cc(C(=O)NCc2ccccn2)c(=O)c2cc(F)c(N3CCN(C)CC3)cc21
- AC50 [1]: 6.51 µM [falling, single point]

Structure (SMILES): Cc1cc(=O)n2[nH]c(N)c(N=Nc3ccccc3)c2n1
- AC50 [1]: 10.3 µM [falling, partial curve, poor fit]

Structure (SMILES): CCOC(=O)c1cnn(-c2cc(C)c3ccccc3n2)c1N
- AC50 [1]: 1.26 µM [rising, full curve, poor fit]

Structure (SMILES): CC(C(=O)N1CCN(C(=O)c2ccco2)CC1)N1C(=O)NC2(CCCCC2C)C1=O (stereo unspecified)
- AC50 [1]: 29.1 µM [rising, single point]

Structure (SMILES): Nc1ccc(S(=O)(=O)Nc2nc(-c3ccccc3)cc(-c3ccccc3)n2)cc1
- AC50 [1]: 14.1 µM [rising, partial curve, poor fit]

Structure (SMILES): CCn1c(SCC(=O)NCc2ccco2)nnc1-c1cccs1
- AC50 [1]: 0.731 µM [falling, partial curve, poor fit]

Structure (SMILES): O=C(Nc1nnc(C2CC2)s1)c1ccncc1
- AC50 [1]: 35.5 µM [falling, single point]

Structure (SMILES): Cc1nn(C(=O)c2cc3sccc3[nH]2)c(C)c1C
- AC50 [1]: 0.58 µM [rising, full curve, poor fit]

Structure (SMILES): COC(=O)C1=C(C)N(Cc2ccccc2)C(=NCc2cc(OC)c(OC)c(OC)c2)N[C@H]1c1ccc(Br)cc1
- AC50 [1]: 18.4 µM [falling, partial curve]

Structure (SMILES): COc1ccccc1NC(=O)c1ccc(-n2cccn2)nc1
- AC50 [1]: 25.1 µM [falling, single point]

Structure (SMILES): CCCC(=O)Nc1ccc(C(=O)Nc2ccc([N+](=O)[O-])cc2OC)cc1
- AC50 [1]: 6.31 µM [rising, partial curve, poor fit]

Structure (SMILES): Cc1ccc(-c2c[n+](Cc3ccc(Cl)cc3)c3n2CCC3)cc1
- AC50 [1]: 20 µM [falling, single point]

Structure (SMILES): O=C(Nc1nccs1)NC(C(F)(F)F)C(F)(F)F
- AC50 [1]: 4.11 µM [rising, single point]

Structure (SMILES): CCCn1nc(C(=O)OCC(=O)c2c(N)n(C)c(=O)n(C)c2=O)c2ccccc2c1=O
- AC50 [1]: 2.82 µM [falling, partial curve, poor fit]

Structure (SMILES): O=C(Nc1ccc2ccccc2c1)c1onc2c1CCCC2
- AC50 [1]: 5.01 µM [falling, partial curve]

Structure (SMILES): Cc1nn2c(NCCCN(C)C)c3c(nc2c1-c1ccccc1)CCCC3
- AC50 [1]: 7.08 µM [falling, partial curve, poor fit]

Structure (SMILES): O=C(CN1C(=O)c2cccnc2Oc2ccc(Cl)cc21)Nc1ccc(F)cc1
- AC50 [1]: 10 µM [falling, partial curve]

Structure (SMILES): CN(C)c1ccc(NC(=O)c2cccc(N3C(=O)C4C5C=CC(C5)C4C3=O)c2)cc1 (stereo unspecified)
- AC50 [1]: 2.82 µM [falling, full curve]
